The list is a part of this screen's results and no random one: it gathers tests that were run many times, whatever their T/C, doses with no T/C, and many T/C values between a quarter and a half above the control. Other doses and runs of a compound stand elsewhere. T/C is the treated group as % of the vehicle group. Some doses have a count of surviving animals in place of a T/C: the source files T/C as zero there, which appears to mark a toxic dose or a test without result, not a measured value. Some doses without a T/C left all or most animals alive at the check, yet need not have been tolerated: survival well below the control is almost never listed, so the zero probably covers shortened survival too. Survivors were counted at the toxicity check, usually on the fifth day, unless a day is given; later deaths do not show. Schedule codes are those of the source, read here as Q, the interval in days (D) or hours (H), X, the number of doses. Some entries hold several experiments; the values are given in rising order. For survival time, this PubChem deposit counts one and a half times the control or more as active, and values a quarter to a half above the control carry no call in these data; other NCI protocols may use other cut-offs. Some T/C values are followed by the survivors on the day toxicity was checked, most often the fifth; where none is given, no animal had died by that day.
Test system: P388 leukemia ip, CD2F1 mice, survival T/C
Experiment: NCI In Vivo Anticancer Drug Screen. Data for tumor model P388 Leukemia (intraperitoneal) in CD2F1 (CDF1) mice
Conditions: T/C endpoint: median survival time, higher T/C = longer survival
[1] = dose: 200.0 mg/kg/injection, schedule: Q01DX009 (ip), vehicle: other
[2] = dose: 50.0 mg/kg/injection, schedule: Q04DX003 (ip), vehicle: Klucel (hydroxypropylcellulose) (HPC)
[3] = dose: 200.0 mg/kg/injection, schedule: Q04DX003 (ip), vehicle: saline with Tween-80
[4] = dose: 12.5 mg/kg/injection, schedule: Q01DX009 (ip), vehicle: Klucel (hydroxypropylcellulose) (HPC)

CC(C)NC(=O)c1ccc(CN(O)Cc2ccc(C(=O)NC(C)C)cc2)cc1
survivor count [1]: 6 of 6

O=C(N/N=C/c1cc(Br)cc(Br)c1[O-])c1ccccc1.O=C(N/N=C/c1cc(Br)cc(Br)c1[O-])c1ccccc1.[Cu+2]
survivor count (dose: 100.0 mg/kg/injection, schedule: Q01DX001 (ip), vehicle: saline with Tween-80): 2 of 6
survivor count (dose: 200.0 mg/kg/injection, schedule: Q01DX001 (ip), vehicle: saline with Tween-80): 0 of 6
survivor count (dose: 400.0 mg/kg/injection, schedule: Q01DX001 (ip), vehicle: saline with Tween-80): 0 of 6

C/C=C/Cc1n[nH]c(=O)c2c(C)[nH]nc12
survivor count (dose: 200.0 mg/kg/injection, schedule: Q04DX002 (ip), vehicle: Klucel (hydroxypropylcellulose) (HPC)): 6 of 6
survivor count (dose: 400.0 mg/kg/injection, schedule: Q04DX002 (ip), vehicle: Klucel (hydroxypropylcellulose) (HPC)): 0 of 6

C/C(=N\N=C(N)N)c1c(C)nn(C(=N)N)c1C
survivor count (dose: 120.0 mg/kg/injection, schedule: Q01DX005 (ip), vehicle: saline): 1 of 6
survivor count (dose: 240.0 mg/kg/injection, schedule: Q01DX005 (ip), vehicle: saline): 0 of 6

O=C1NC(c2ccccc2)(c2ccccc2)C(=O)N1CCBr
T/C [2]: 131 % of control

CCCCC1CCCCCCc2[nH]c(/C=C3\N=C(c4ccc[nH]4)C=C3OC)cc21 (stereo unspecified)
T/C (dose: 0.5 mg/kg/injection, schedule: Q01DX009 (ip), vehicle: saline with Tween-80): 130 % of control
T/C (dose: 0.7 mg/kg/injection, schedule: Q01DX009 (ip), vehicle: saline with Tween-80): 126 % of control
T/C (dose: 1.0 mg/kg/injection, schedule: Q01DX009 (ip), vehicle: saline with Tween-80): 145 % of control
survivor count (dose: 1.5 mg/kg/injection, schedule: Q01DX009 (ip), vehicle: saline with Tween-80): 1 of 6
T/C (dose: 1.56 mg/kg/injection, schedule: Q01DX009 (ip), vehicle: saline with Tween-80): 129 % of control
survivor count (dose: 2.0 mg/kg/injection, schedule: Q01DX009 (ip), vehicle: saline with Tween-80): 3 of 6 and 4 of 6
survivor count (dose: 2.3 mg/kg/injection, schedule: Q01DX009 (ip), vehicle: saline with Tween-80): 4 of 6
survivor count (dose: 3.13 mg/kg/injection, schedule: Q01DX009 (ip), vehicle: saline with Tween-80): 6 of 6
survivor count (dose: 6.25 mg/kg/injection, schedule: Q01DX009 (ip), vehicle: saline with Tween-80): 5 of 6
survivor count (dose: 12.5 mg/kg/injection, schedule: Q01DX009 (ip), vehicle: saline with Tween-80): 4 of 6

Cc1ccc(C[N+](C)(C)CCCCCOc2c(Br)cc(Br)cc2Br)o1
survivor count (dose: 25.0 mg/kg/injection, schedule: Q04DX003 (ip), vehicle: Klucel (hydroxypropylcellulose) (HPC)): 3 of 6
survivor count [2]: 3 of 6
survivor count (dose: 100.0 mg/kg/injection, schedule: Q04DX003 (ip), vehicle: Klucel (hydroxypropylcellulose) (HPC)): 0 of 6
survivor count (dose: 200.0 mg/kg/injection, schedule: Q04DX003 (ip), vehicle: Klucel (hydroxypropylcellulose) (HPC)): 0 of 6
survivor count (dose: 400.0 mg/kg/injection, schedule: Q04DX003 (ip), vehicle: Klucel (hydroxypropylcellulose) (HPC)): 0 of 6

COc1cc2c(c(OC)c1OC)-c1ccc(SC)c(=O)cc1[C@@H](NC(=O)CCl)CC2
T/C (dose: 0.05 mg/kg/injection, schedule: Q01DX009 (ip), vehicle: other): 132 % of control
T/C (dose: 0.05 mg/kg/injection, schedule: Q01DX009 (ip), vehicle: water): 137 % of control
T/C (dose: 0.1 mg/kg/injection, schedule: Q01DX009 (ip), vehicle: other): 125 % of control
T/C (dose: 0.1 mg/kg/injection, schedule: Q01DX009 (ip), vehicle: water): 133 % of control
T/C (dose: 0.2 mg/kg/injection, schedule: Q01DX009 (ip), vehicle: other): 132 % of control
T/C (dose: 0.2 mg/kg/injection, schedule: Q01DX009 (ip), vehicle: water): 144 % of control
T/C (dose: 0.4 mg/kg/injection, schedule: Q01DX009 (ip), vehicle: other): 139 % of control
survivor count (dose: 0.78 mg/kg/injection, schedule: Q01DX009 (ip), vehicle: other): 2 of 6
survivor count (dose: 0.8 mg/kg/injection, schedule: Q01DX009 (ip), vehicle: other): 4 of 6
survivor count (dose: 0.8 mg/kg/injection, schedule: Q01DX009 (ip), vehicle: water): 5 of 6
survivor count (dose: 1.56 mg/kg/injection, schedule: Q01DX009 (ip), vehicle: other): 1 of 6
survivor count (dose: 3.13 mg/kg/injection, schedule: Q01DX009 (ip), vehicle: other): 0 of 6
survivor count (dose: 6.25 mg/kg/injection, schedule: Q01DX009 (ip), vehicle: other): 0 of 6
survivor count (dose: 12.5 mg/kg/injection, schedule: Q01DX009 (ip), vehicle: other): 0 of 6
survivor count (dose: 25.0 mg/kg/injection, schedule: Q01DX009 (ip), vehicle: other): 0 of 6
survivor count (dose: 50.0 mg/kg/injection, schedule: Q01DX009 (ip), vehicle: other): 0 of 6
survivor count (dose: 100.0 mg/kg/injection, schedule: Q01DX009 (ip), vehicle: other): 0 of 6
survivor count [1]: 0 of 6

CC(C)(CC#N)c1cc(CC(C)(C)c2cc(CC(C)(C)c3cc(CC(C)(C)C4(C)OCCO4)no3)no2)no1
survivor count (dose: 120.0 mg/kg/injection, schedule: Q01DX005 (ip), vehicle: saline with Tween-80): 6 of 6

NC(C(=O)O)c1ccc(CBr)cc1 (stereo unspecified)
T/C (dose: 50.0 mg/kg/injection, schedule: Q04DX003 (ip), vehicle: saline with Tween-80): 142 [5 of 6 alive] and 149 % of control
T/C [3]: 144 % of control [4 of 6 alive]
survivor count [3]: 4 of 6

[Cl][Pt+2][Cl].[NH-]c1ccccc1F.[NH-]c1ccccc1F
T/C (dose: 1.56 mg/kg/injection, schedule: Q01DX009 (ip), vehicle: Klucel (hydroxypropylcellulose) (HPC)): 138 % of control
T/C (dose: 3.12 mg/kg/injection, schedule: Q01DX009 (ip), vehicle: Klucel (hydroxypropylcellulose) (HPC)): 145 % of control
T/C (dose: 6.25 mg/kg/injection, schedule: Q01DX009 (ip), vehicle: Klucel (hydroxypropylcellulose) (HPC)): 146 [5 of 6 alive] and 148 % of control
T/C [4]: 148 % of control [5 of 6 alive]
survivor count [4]: 5 of 6
survivor count (dose: 25.0 mg/kg/injection, schedule: Q01DX009 (ip), vehicle: Klucel (hydroxypropylcellulose) (HPC)): 1 of 6 and 4 of 6
survivor count (dose: 50.0 mg/kg/injection, schedule: Q01DX009 (ip), vehicle: Klucel (hydroxypropylcellulose) (HPC)): 0 of 6
survivor count (dose: 100.0 mg/kg/injection, schedule: Q01DX009 (ip), vehicle: Klucel (hydroxypropylcellulose) (HPC)): 0 of 6
survivor count (dose: 200.0 mg/kg/injection, schedule: Q01DX009 (ip), vehicle: Klucel (hydroxypropylcellulose) (HPC)): 0 of 6

CCCCCN(CCCCC)CC(O)c1ccc(OC)c2ccccc12 (stereo unspecified)
survivor count (dose: 200.0 mg/kg/injection, schedule: Q01DX005 (ip), vehicle: Klucel (hydroxypropylcellulose) (HPC)): 4 of 5

Source: PubChem BioAssay AID330 (DTP/NCI, 2004)
